Data as given in PMC3206951.

T1: RpkA-GFP (Receptor phosphatidylinositol kinase A with GFP fused to the C-terminus) (D. discoideum) (UniProt Q86D86)
T1 sequence: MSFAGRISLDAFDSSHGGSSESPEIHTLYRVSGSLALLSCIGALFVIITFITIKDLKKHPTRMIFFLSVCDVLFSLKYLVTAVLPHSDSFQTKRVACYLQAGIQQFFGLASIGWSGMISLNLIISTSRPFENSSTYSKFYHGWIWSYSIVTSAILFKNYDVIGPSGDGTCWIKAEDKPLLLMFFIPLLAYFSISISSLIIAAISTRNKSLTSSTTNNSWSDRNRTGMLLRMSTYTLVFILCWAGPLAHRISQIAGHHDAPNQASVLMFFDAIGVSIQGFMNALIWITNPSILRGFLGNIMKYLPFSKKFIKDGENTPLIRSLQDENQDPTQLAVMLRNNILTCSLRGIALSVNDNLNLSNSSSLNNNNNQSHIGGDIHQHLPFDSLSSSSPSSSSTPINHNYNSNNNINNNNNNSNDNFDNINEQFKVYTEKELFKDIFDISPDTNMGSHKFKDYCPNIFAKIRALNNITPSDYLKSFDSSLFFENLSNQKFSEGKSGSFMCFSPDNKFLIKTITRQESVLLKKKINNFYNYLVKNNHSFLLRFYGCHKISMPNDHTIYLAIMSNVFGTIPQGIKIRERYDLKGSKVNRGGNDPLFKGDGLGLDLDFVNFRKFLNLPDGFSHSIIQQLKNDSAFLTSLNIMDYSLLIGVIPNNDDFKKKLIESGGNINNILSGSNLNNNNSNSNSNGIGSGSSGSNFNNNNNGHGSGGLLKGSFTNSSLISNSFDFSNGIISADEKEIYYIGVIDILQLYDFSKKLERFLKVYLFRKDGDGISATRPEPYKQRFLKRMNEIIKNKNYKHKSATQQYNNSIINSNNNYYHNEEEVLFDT

B1: VatM, subunit M of the V-ATPase (membrane-spanning subunit) (protein, UniProt Q54E04 1-815)
chain: MSFLRPSIWRSSPMQMVQLFVQIEAAHDTVDELGKLGLIQFLDDNEHVNLFQRNFVNEVKRCDDMEKKLKFFEDQVKKEPKLQKLLPDNMLSVVDDDSQMDELEGRFDELESELKQVNANQETLQRNYNELIQLRHVLTKDSVFFQENPNLIEGEGHEHSARSPLLAEDQHVSEVAKQGVKLGFITGVMNTDKMPQFQRSLWRTTRGNNYVKDARIEEEIIDPQTGEETAKTVFIVFFQGERLQQKIKKICESFGANIYDCPDNSFERSNLLQKVTVRITDLYEVLQRSKDHKRQTLAGIVPRLYSWKKKVLLEKSIYHTMNLFDYDVGRKCLIAKGWTPKDKIEEIQLALRTATTRSGALVPSVLSIIKTEGSPPTHFETNKYTSSFQEIVNAYGIAHYREVNPAVLTIVTFPFLFGVMFGDVGHGALLLLSALGLISLEKKLAGKKLNELIQMPFDGRYVLFLMSLFSIYVGFIYNECFSIPMNIFGSQYNLNSTTGLYTYQHTDRVYPVGVDPLWKGAPNELVYYNSFKMKLSIIFGVVQMSVGICFSLLNYLNQKGPIKIVNILTQFVPQMIFLWSIFGYMSVLIILKWVVPYRSFEVDKVDPPFILPTIIAMFLSPGGTPDVVFFSGQGAVQTALLFLALISIPVMLVIKPLFMKRFHFQEVERKKLGHHEEEHDDEALYTGHHGEEFEMGEVFVHQVIHTIEFVLGAVSNTASYLRLWALSLAHSELSSVFWERILIGQVERGNPFLAFVGFGAWLGASVAVLLLMESLSAFLHALRLHWVEFQNKFYIGDGVRFIPYSATRILSEDDE
B2: VatC, subunit C of the V-ATPase (protein, UniProt P54648 1-368)
chain: MSETQEFWLISAPNLPGADIFDQVNQKTAKENSLSENKKFNTPALRVGTLNSLITLNDELQKIDTIVESTTKKIARQLVDLVGTKPGKDKSLSINGHTIPQYLQQFAWDDAKYNLKLSLQEIVEKISSAVSKIDDDLKIKSSEYSTLSSSVASEERKASGNLQVRTLNDLITADNIVQTDYFTTAFVVIPKQSEKEFLACYETISDFVLGRSAKRVAQDNDYFLYSVILFKKFYENFKTKIIEKKWVVRDFKLEDNKPTQERSKLTEDKKNCRTSLIRWCRLNFPEAFMAWVHLKVVRVFVESVLRFGIPFNFQAILMKPQKGADKKVRDILFDQFKYLGSAHISGKNETDDSEKFYPYISVSVNWEN

Target: T1, RpkA-GFP (Receptor phosphatidylinositol kinase A with GFP fused to the C-terminus) (D. discoideum)
Assay: affinity purification with mass spectrometry; RpkA-GFP immunoprecipitated from cell lysates with polyclonal GFP antibodies coupled to protein A beads; lysis in 50 mM Tris-HCl pH 7.4, 100 mM NaCl, 0.5% NP40; SDS-PAGE, Coomassie Blue, LC-MS/MS; GFP as a control

| Binder | binding |
| --- | --- |
| B1 | binds |
| B2 | binds |

No constants are given. Whether binding was seen depends on the method and setting. Binding seen in cells or lysates may run through a third protein. A yes stands for co-enrichment or nearness to the bait. Other partners may have been found. Tags and fused reporters may be left off the sequences shown.
